Source: paper PMC3618364
Results are given in words; binding and its absence hold for the method and conditions named. Binding calls can cover weak binding; strength is not graded here.

Sequences of proteins named here, by UniProt entry; tags and fusion partners are left off. A change or cut given only in a name is not applied to a line headed by its entry.
UniProt P32828: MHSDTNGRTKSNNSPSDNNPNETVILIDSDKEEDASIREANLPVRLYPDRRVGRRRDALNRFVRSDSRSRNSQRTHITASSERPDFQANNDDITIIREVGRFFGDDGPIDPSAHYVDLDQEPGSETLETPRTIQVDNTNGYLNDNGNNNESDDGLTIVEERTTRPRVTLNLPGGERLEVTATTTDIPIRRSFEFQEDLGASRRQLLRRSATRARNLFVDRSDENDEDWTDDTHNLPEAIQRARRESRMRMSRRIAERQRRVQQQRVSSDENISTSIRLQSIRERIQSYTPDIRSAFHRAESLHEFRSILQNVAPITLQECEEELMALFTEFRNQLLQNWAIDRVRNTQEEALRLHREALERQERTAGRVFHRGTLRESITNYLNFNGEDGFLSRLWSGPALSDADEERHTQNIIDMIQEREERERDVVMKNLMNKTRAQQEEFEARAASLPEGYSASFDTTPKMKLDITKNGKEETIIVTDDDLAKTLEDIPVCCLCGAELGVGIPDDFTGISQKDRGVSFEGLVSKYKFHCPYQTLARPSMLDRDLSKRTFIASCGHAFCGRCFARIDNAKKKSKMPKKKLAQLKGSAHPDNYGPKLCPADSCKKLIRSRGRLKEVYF
UniProt Q08562: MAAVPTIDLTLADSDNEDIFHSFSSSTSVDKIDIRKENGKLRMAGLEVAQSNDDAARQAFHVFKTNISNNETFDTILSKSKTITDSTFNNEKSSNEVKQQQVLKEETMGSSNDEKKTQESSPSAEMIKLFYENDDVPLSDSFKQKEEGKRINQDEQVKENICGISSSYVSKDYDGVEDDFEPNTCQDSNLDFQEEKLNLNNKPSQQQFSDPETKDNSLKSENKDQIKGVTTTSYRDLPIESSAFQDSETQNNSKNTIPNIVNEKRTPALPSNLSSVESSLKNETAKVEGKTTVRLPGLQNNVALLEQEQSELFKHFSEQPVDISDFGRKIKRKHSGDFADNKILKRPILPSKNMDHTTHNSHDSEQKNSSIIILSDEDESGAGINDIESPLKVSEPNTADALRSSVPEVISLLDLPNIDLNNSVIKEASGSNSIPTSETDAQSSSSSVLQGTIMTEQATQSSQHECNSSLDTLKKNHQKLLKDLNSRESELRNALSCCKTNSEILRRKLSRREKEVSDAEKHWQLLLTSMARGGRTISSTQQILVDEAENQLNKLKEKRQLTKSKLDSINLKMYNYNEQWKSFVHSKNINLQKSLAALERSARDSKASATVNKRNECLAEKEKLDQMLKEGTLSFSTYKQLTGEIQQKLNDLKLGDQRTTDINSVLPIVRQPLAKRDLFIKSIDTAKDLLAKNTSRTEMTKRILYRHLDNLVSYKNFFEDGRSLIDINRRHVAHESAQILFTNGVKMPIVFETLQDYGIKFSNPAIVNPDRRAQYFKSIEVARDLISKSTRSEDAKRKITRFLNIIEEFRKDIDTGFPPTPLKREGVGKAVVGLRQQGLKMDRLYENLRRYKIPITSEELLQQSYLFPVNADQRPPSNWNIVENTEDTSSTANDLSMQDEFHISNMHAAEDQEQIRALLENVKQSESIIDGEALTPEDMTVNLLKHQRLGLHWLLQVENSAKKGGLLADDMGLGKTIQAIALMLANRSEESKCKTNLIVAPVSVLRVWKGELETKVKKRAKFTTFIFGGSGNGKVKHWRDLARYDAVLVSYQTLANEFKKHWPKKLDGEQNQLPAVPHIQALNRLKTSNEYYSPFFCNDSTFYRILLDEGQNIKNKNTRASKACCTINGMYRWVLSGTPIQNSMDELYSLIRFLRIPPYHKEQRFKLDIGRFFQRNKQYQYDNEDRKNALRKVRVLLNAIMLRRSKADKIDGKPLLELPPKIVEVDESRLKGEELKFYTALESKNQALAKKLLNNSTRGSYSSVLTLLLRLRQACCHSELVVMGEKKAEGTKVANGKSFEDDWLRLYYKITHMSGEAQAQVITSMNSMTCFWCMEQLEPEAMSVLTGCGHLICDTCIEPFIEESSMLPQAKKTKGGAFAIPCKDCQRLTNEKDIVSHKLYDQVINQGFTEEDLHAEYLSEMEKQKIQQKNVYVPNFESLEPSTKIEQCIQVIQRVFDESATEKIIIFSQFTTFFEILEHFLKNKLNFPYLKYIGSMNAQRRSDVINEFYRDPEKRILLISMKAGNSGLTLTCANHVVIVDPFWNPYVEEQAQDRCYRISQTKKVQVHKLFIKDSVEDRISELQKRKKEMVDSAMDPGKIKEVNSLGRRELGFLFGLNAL

Molecular target: Slx5 with mutations of the SIMs (S. cerevisiae) (UniProt P32828)
Assay: two-hybrid; Gal4AD and Gal4BD fusions (pGADT7, pGBKT7) in reporter strain PJ69-4A; His (10 mM 3AT) and Ade reporter phenotypes on plates

“Gal4AD-Uls1 (1-1619) (from UniProt Q08562 1-1619)” was tested, and the binding was “binds”.
